Data on 2 compounds can be found in US4235666A, “1,2,3,4,4a,9a-Hexahydro-9,10-anthracene-dione, its preparation and its application to the delignification of lignocellulosic materials” (Produits Chimiques Ugine Kuhlmann, priority 1978, dated 1980).

Molecules are shown by their SMILES.

A short description of this data set: Caustic soda cooking (delignification) with adjuvant. On the set-up: species or system moorland maritime pine. The method, then: Shavings of moorland maritime pine are subjected to heating in an autoclave with a caustic soda liquor. The cooking conditions are as follows:
Amount of caustic soda: 22% by weight with respect to the dry vegetable material.
Ratio of liquor/vegetable material: 4
Temperature of cooking: 170° C.
Time in which the cooking temperature
Time of cooking: 90 minutes
Amount of adjuvant: 0-0.1%-0.5%-1% by weight with respect to the dry vegetable material
After cooking, the pulps obtained are washed, disintegrated on a 3 mm grid (Vewerk grader or sorter).
The crude yield and the yield of sorted pulp are determined on the pulps, and the Kappa index according to French standard NFT 12018 are determined on the raw pulps.
The pH and the consumption of caustic soda are determined on the liquors after cooking.
A comparative test with 0.5% of anthraquinone was carried out under the same operational conditions as in Example 9.

Consider `O=C1c2ccccc2C(=O)C2CCCCC12` (stereo not shown) [6 HAD, 1,2,3,4,4a,9a-hexahydro-9,10-anthracene-dione], for which the “pH of liquor after heating” value was found to be 12.4 (0.1% adjuvant), 12.4 (0.5% adjuvant) and 12.4 (1% adjuvant).
For the compound `O=C1c2ccccc2C(=O)c2ccccc21` [Anthraquinone, anthraquinone, reference compound], the “pH of liquor after heating” value (0.5% adjuvant) was 12.3.
